PubChem BioAssay AID1671195 – Yale University – 2021

Aim: 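Genes whose knockdown alters LDL uptake in liver cancer cells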 (primary screen)
Cells: human Huh7 hepatoma cells
Knock-down reagent: siRNA pool against human genes, 18 nM
Timing: about 2 to 2.5 days of knockdown, then 8 h LDL uptake
Challenge: DiI-labelled LDL at 30 µg/ml for 8 h, in lipoprotein-deficient serum medium
Detection: 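Per-cell DiI-LDL intensity by automated imaging; well means scaled to the plate median and given as a robust z-score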
Reading the numbers: robust z-score: higher = more LDL uptake after knockdown
Rule for the call: 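a gene counts as active if at least two replicate z-scores exceed ±2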
In all, the deposit lists about 22,000 reagents; this is a part drawn at random. About 1,510 of all reagents (6.9%) count as active. 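Active includes knockdowns raising or lowering LDL uptake; positive z-scores mean more uptake, negative mean less.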 Entries without a mark were called inactive. The numbers tell different reagents against one gene apart.

GSDMD (gasdermin D) → robust z-score, replicate 1: -2.18 (active); robust z-score, replicate 2: -1.88; robust z-score, replicate 3: -2
LOC93463 → robust z-score, replicate 1: 0.651; robust z-score, replicate 2: 0.656; robust z-score, replicate 3: -0.0359
A2ML1 (alpha-2-macroglobulin like 1) → robust z-score, replicate 1: 0.59; robust z-score, replicate 2: 0.728; robust z-score, replicate 3: 0.0371
EPX (eosinophil peroxidase) → robust z-score, replicate 1: -0.309; robust z-score, replicate 2: -0.435; robust z-score, replicate 3: -0.553
AP1B1 (adaptor related protein complex 1 subunit beta 1) → robust z-score, replicate 1: -0.0707; robust z-score, replicate 2: 0.114; robust z-score, replicate 3: -0.31
APC2 (APC regulator of Wnt signaling pathway 2) → robust z-score, replicate 1: -1.2; robust z-score, replicate 2: -0.804; robust z-score, replicate 3: -1.09
EEA1 (early endosome antigen 1) → robust z-score, replicate 1: -0.292; robust z-score, replicate 2: -0.214; robust z-score, replicate 3: -1.44
FBXW7 (F-box and WD repeat domain containing 7) → robust z-score, replicate 1: 1.23; robust z-score, replicate 2: 1.06; robust z-score, replicate 3: 1.44
UNK (unk zinc finger) → robust z-score, replicate 1: 3.01 (active); robust z-score, replicate 2: 3.16; robust z-score, replicate 3: 2.46
MMP25 (matrix metallopeptidase 25) #1 → robust z-score, replicate 1: -0.719; robust z-score, replicate 2: -0.668; robust z-score, replicate 3: 1.25
MMP25 (matrix metallopeptidase 25) #2 → robust z-score, replicate 1: -1.84; robust z-score, replicate 2: -1.26; robust z-score, replicate 3: -1.51
DEPDC1B (DEP domain containing 1B) → robust z-score, replicate 1: -1.28; robust z-score, replicate 2: -1.7; robust z-score, replicate 3: 1.75
POLE3 (DNA polymerase epsilon 3, accessory subunit) → robust z-score, replicate 1: -0.278; robust z-score, replicate 2: -0.563; robust z-score, replicate 3: -0.701
PLPP4 (phospholipid phosphatase 4) → robust z-score, replicate 1: -0.59; robust z-score, replicate 2: -0.622; robust z-score, replicate 3: -0.982
ITGB7 (integrin subunit beta 7) → robust z-score, replicate 1: -0.803; robust z-score, replicate 2: -1.96; robust z-score, replicate 3: -1.81
PLIN4 (perilipin 4) → robust z-score, replicate 1: 0.718; robust z-score, replicate 2: -0.328; robust z-score, replicate 3: -0.0569
UBR2 (ubiquitin protein ligase E3 component n-recognin 2) → robust z-score, replicate 1: -0.586; robust z-score, replicate 2: -0.0258; robust z-score, replicate 3: -1.11
PPA2 (inorganic pyrophosphatase 2) → robust z-score, replicate 1: -1.52; robust z-score, replicate 2: -1.6; robust z-score, replicate 3: -0.888
FBXW10 (F-box and WD repeat domain containing 10) → robust z-score, replicate 1: 2.08; robust z-score, replicate 2: 0.858; robust z-score, replicate 3: 0.445
LINC01619 (long independently transcribed non-coding RNA 1619) → robust z-score, replicate 1: -0.287; robust z-score, replicate 2: -0.0811; robust z-score, replicate 3: -0.48
VSX2 (visual system homeobox 2) → robust z-score, replicate 1: -0.757; robust z-score, replicate 2: -0.883; robust z-score, replicate 3: -0.059
LOC402237 (retired record) → robust z-score, replicate 1: -0.933; robust z-score, replicate 2: 0.249; robust z-score, replicate 3: 0.135
ANKRD6 (ankyrin repeat domain 6) → robust z-score, replicate 1: -0.591; robust z-score, replicate 2: -0.206; robust z-score, replicate 3: -0.201
CHODL (chondrolectin) → robust z-score, replicate 1: -0.498; robust z-score, replicate 2: -1.17; robust z-score, replicate 3: 0.523
UGT2B17 (UDP glucuronosyltransferase family 2 member B17) → robust z-score, replicate 1: 0.975; robust z-score, replicate 2: 0.852; robust z-score, replicate 3: 1.18
C1orf21 (chromosome 1 open reading frame 21) → robust z-score, replicate 1: 1.69 (active); robust z-score, replicate 2: 2.78; robust z-score, replicate 3: 3.16
GALNT2 (polypeptide N-acetylgalactosaminyltransferase 2) → robust z-score, replicate 1: -1.96; robust z-score, replicate 2: 0.806; robust z-score, replicate 3: 0.569
SFTPB (surfactant protein B) → robust z-score, replicate 1: -0.0437; robust z-score, replicate 2: 1.71; robust z-score, replicate 3: -0.798
REV3L (REV3 like, DNA directed polymerase zeta catalytic subunit) → robust z-score, replicate 1: 0.366; robust z-score, replicate 2: 0.858; robust z-score, replicate 3: 0.942
SMARCC2 (SWI/SNF related BAF chromatin remodeling complex subunit C2) → robust z-score, replicate 1: 1.3; robust z-score, replicate 2: 0.449; robust z-score, replicate 3: 1.47

Entries above whose gene name starts with U or u (3):
UNK (unk zinc finger) → robust z-score, replicate 1: 3.01 (active); robust z-score, replicate 2: 3.16; robust z-score, replicate 3: 2.46
UBR2 (ubiquitin protein ligase E3 component n-recognin 2) → robust z-score, replicate 1: -0.586; robust z-score, replicate 2: -0.0258; robust z-score, replicate 3: -1.11
UGT2B17 (UDP glucuronosyltransferase family 2 member B17) → robust z-score, replicate 1: 0.975; robust z-score, replicate 2: 0.852; robust z-score, replicate 3: 1.18
